Experiment: 1H NMR evaluation of oxidative consumption of salivary biomolecules by ozone
Conditions: unstimulated human saliva 0.60 ml, O3 for 30 seconds, 1H NMR 600 MHz

Compound: O=[O+][O-] [ozone]
- effect of O3 treatment on salivary 3-D-hydroxybutyrate: evidence for the O3-mediated oxidation of salivary 3-D-hydroxybutyrate
- effect of O3 treatment on salivary methionine: oxidation of the volatile sulphur compound precursor methionine to its corresponding sulphoxide
- effect of O3 treatment on salivary polyunsaturated fatty acids: oxidative consumption of salivary polyunsaturated fatty acids
- effect of O3 treatment on salivary pyruvate: oxidative decarboxylation of the salivary electron-donor pyruvate

— US20040022744A1, “Method of treating dental caries and remineralizing lesions” (priority 2001, published 2004)
